Reference: patent US20060253917A1 (published 2006)
Blank lines part the entries; values can stand above or below the binder they belong to.

Legend:
OsHOS59 aa 1-100 = molecular target: T1, OsHOS59 aa 1-100 (Oryza sativa, UniProt Q94LW4 113-212); assay: Y2H; output trait library
T1 construct: bait, Gal4 DBD fusion; also called PN20559; O. sativa Homeobox Protein HOS59, Fragment
T1 sequence: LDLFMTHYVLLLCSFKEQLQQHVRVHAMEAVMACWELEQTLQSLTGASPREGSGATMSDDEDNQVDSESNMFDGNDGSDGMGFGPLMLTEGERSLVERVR
Method in brief: (§1)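 Protein-protein interactions were detected in an automated, high-throughput yeast two-hybrid assay from Myriad Genetics Inc. (Salt Lake City, Utah), with a bait clone encoding a defined amino-acid fragment of a rice protein screened against the input trait or output trait rice prey library. Interacting proteins were identified by BLAST comparison of the encoding sequences of retrieved prey clones against databases.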

Os018989-4003 aa 90-220 = molecular target: T2, Os018989-4003 aa 90-220 (Oryza sativa); assay: Y2H; input trait library
T2 construct: bait, Gal4 DBD fusion; also called PN21044
T2 chain: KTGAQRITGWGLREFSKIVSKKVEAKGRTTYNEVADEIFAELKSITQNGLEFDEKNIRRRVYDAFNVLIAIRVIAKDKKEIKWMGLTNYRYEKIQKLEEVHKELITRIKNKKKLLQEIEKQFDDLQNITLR
Method in brief: as §1

OsMADS6 aa 50-200 = molecular target: T3, OsMADS6 aa 50-200 (Oryza sativa, UniProt Q6EU39 50-200); assay: Y2H; output trait library
T3 construct: bait, Gal4 DBD fusion; also called PN20233
T3 sequence: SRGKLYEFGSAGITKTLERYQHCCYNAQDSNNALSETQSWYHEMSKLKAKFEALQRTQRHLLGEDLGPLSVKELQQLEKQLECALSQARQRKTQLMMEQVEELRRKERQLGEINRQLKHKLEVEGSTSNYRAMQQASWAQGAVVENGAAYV
Method in brief: as §1

OsSGT1 aa 200-368 = molecular target: T4, OsSGT1 aa 200-368 (Oryza sativa, UniProt Q0JL44 200-367); assay: Y2H; output trait library
T4 construct: bait, Gal4 DBD fusion; also called PN20285
T4 sequence: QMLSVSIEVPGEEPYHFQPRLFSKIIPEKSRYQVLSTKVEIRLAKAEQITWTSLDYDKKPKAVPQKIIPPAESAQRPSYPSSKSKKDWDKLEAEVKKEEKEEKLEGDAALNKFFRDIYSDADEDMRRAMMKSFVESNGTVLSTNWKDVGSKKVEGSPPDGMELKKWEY
Method in brief: (§2)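 Protein interactions were tested in an automated, high-throughput yeast two-hybrid screen supplied by Myriad Genetics Inc. Fragments of rice proteins, defined by amino-acid range, served as bait against rice prey clone libraries. Interacting prey clones were retrieved from the output trait library. The sequences encoding the retrieved fragments were compared by BLAST analysis against databases to identify the full-length genes. Each value records whether an interaction was detected.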

PN20115 aa 5-140 = molecular target: T5, PN20115 aa 5-140 (Oryza sativa); assay: Y2H; output trait library
T5 construct: bait, Gal4 DBD fusion; also called Ring zinc finger protein
T5 chain: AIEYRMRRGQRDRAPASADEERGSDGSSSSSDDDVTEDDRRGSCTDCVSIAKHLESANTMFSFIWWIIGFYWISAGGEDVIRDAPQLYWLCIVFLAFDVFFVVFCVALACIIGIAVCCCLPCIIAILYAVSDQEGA

OsRAP1B aa 1-150 = molecular target: T6, OsRAP1B aa 1-150 (Oryza sativa, UniProt Q10CQ1 1-150); assay: Y2H; input trait library
T6 construct: bait, Gal4 DBD fusion; also called PN20232
T6 sequence: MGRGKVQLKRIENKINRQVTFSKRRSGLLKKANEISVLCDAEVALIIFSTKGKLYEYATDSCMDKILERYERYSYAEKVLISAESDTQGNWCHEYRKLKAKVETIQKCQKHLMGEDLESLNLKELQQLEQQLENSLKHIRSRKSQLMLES
Method in brief: as §1

OsMADS45 aa 50-198 = molecular target: T7, OsMADS45 aa 50-198 (Oryza sativa, UniProt P0C5B0 50-198); assay: Y2H; input trait library
T7 construct: bait, Gal4 DBD fusion; also called PN20231; O. sativa MADS box protein MADS45
T7 sequence: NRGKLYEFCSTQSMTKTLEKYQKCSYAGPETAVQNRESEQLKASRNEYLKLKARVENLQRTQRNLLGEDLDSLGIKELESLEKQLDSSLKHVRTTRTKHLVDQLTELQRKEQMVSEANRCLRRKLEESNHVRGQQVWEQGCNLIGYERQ
Method in brief: as §1

OsCS aa 316-583 = molecular target: T8, OsCS aa 316-583 (Oryza sativa, UniProt A2Y0X2 316-583); assay: Y2H; output trait library
T8 construct: bait, Gal4 DBD fusion; also called PN19707
T8 sequence: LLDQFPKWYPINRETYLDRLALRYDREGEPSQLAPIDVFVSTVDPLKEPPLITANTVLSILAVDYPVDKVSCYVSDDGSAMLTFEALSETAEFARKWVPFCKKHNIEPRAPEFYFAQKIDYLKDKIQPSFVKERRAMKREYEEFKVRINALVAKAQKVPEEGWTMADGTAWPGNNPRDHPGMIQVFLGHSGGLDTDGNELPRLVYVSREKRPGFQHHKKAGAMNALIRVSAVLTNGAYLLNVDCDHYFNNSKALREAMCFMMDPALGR
Method in brief: as §2

binding result (OsHOS59 aa 1-100): binds
B1: OsMYB aa 36-129 (other)
chain: CWRAVPKLAGLLRCGKSCRLRWTNYLRPDLKRGLLSETEEKTVIDLHEQLGNRWSKIASHLPGRTDNEIKNHWNTHIKKKLRKMGIDPVTHKPL
notes: prey, AD fusion; also called PN20689; O. sativa Probable Myb Factor

binding result (Os018989-4003 aa 90-220): binds
B2: OsE2F1 aa 95-276 (other)
chain: SNVGSPLNPPTPVGTCRYDSSLGLLTKKFINLLKQAPDGILDLNNAAETLEVQKRRIYDITNVLEGIGLIEKTLKNRIRWKGLDDSGVELDNGLSALQAEVENLSLKEQALDERISDMREKLRGLTEDENNQRWLYVTEDDIKGLPCFQNETLIAIKAPHGTTLEVPDPDEAGDYLQRRYRI
notes: prey, AD fusion; also called PN19758

binding result (OsMADS6 aa 50-200): binds
B3: OsMADS15 aa 1-176 (other)
chain: MGRGKVQLKRIENKINRQVTFSKRRNGLLKKAHEISVLCDAEVAAIVFSPKGKLYEYATDSRMDKILERYERYSYAEKALISAESESEGNWCHEYRKLKAKIETIQKCHKHLMGEDHESLNLKELQQLEQQLESSLKHIISRKSHLMLESISELQKKERSLQEENKALQKELVERQ
notes: prey, AD fusion; also called PN20842

binding result (OsSGT1 aa 200-368): binds
B4: PN24060 aa 176-315 (other)
chain: EKGMKEAENVVEAKSSQLESLVSHEGEKTPRPQAVAEGSSKVVPTPVEYTVNDIIDGKTVNAVEGLKVYEGLVNENEKNKILSLLNETKASFRRGGLEAGQTVIIGKRPMKGHGREIIQLGIPIVEGPPEDDYPRETKVE
notes: prey, AD fusion; also called L-aspartase-like protein-like

binding result (PN20115 aa 5-140): binds
B5: PN23221 aa 84-302 (other)
chain: PEPEPKPEPKPEPKPEPKPEPKPYPEPKPEPKPEPKPEPEPKPEPKPEPKPEPKPYPEPKPEPKPEPKPEPKPEPKPKPEPKPHPEPKPDPKPEPKPHPEPEPKPEPKPEPKPHPEPEPKPEPKPEPKPEPKPEPKPEPKPKPKPEPKPKPEPKPYPEPKPKPEPKPEPKPEPKPEPKPEPKPEPKPEPKPEPKPKPEPKPHPKPEPKPEPKPEPKPEP
notes: prey, AD fusion; also called Proline rich protein

binding result (OsRAP1B aa 1-150): binds
B6: Os008339 aa 32-162 (other)
chain: RRRGLFKKAEELSILCDAEVGLVVFSATGKLFQFASTSMEQIIDRYNSHSKTLQRAEPSQLDLQGEDSSTCARLKEELAETSLRLRQMRGEELHRLNVEQLQELEKSLESGLGSVLKTKSKKILDEIDGLE
notes: prey, AD fusion; also called PN20847

binding result (OsMADS45 aa 50-198): binds
B7: Os008339 aa 30-178 (other)
chain: SKRRRGLFKKAEELSILCDAEVGLVVFSATGKLFQFASTSMEQIIDRYNSHSKTLQRAEPSQLDLQGEDSSTCARLKEELAETSLRLRQMRGEELHRLNVEQLQELEKSLESGLGSVLKTKSKKILDEIDGLERKRMQLIEENLRLKEQ
notes: prey, AD fusion; also called PN20847; O. sativa OS008339 MADS box transcription factor, fragment

binding result (OsCS aa 316-583): binds
B8: OsPN29118 aa 1-136 (other)
chain: TSSGDQQMVTVAERFPREVSSEAVFRCVRLGPVDQAEAEVAYQTAVSIGGHVFKGILHDVGPEALAVAGGGGASEYHFRLTGDGSSPSTAAAGEAGSGGGGNIIVSSAVVMDPYPTPGPYGAFPAGTPFFHGHPRP
notes: prey, AD fusion; also called Novel Protein PN29118, Fragment
